# Reference: PubChem BioAssay (EPA / NIEHS)
# Sequences of proteins named here, by UniProt entry; tags and fusion partners are left off. A change or cut given only in a name is not applied to a line headed by its entry.
# UniProt P04798: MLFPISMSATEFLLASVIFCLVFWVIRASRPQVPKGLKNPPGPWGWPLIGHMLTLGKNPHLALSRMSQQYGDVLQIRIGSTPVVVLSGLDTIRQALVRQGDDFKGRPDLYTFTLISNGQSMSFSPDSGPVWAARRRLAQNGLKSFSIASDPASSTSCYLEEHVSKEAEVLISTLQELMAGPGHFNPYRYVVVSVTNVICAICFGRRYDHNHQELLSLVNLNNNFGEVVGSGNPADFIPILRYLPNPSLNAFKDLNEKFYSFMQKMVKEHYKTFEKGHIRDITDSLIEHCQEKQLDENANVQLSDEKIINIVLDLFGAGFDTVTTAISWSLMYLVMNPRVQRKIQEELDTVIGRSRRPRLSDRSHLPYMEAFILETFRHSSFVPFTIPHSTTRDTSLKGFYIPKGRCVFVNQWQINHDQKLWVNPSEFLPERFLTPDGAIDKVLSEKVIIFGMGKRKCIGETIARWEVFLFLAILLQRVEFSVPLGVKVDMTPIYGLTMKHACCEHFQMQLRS
# UniProt P57717: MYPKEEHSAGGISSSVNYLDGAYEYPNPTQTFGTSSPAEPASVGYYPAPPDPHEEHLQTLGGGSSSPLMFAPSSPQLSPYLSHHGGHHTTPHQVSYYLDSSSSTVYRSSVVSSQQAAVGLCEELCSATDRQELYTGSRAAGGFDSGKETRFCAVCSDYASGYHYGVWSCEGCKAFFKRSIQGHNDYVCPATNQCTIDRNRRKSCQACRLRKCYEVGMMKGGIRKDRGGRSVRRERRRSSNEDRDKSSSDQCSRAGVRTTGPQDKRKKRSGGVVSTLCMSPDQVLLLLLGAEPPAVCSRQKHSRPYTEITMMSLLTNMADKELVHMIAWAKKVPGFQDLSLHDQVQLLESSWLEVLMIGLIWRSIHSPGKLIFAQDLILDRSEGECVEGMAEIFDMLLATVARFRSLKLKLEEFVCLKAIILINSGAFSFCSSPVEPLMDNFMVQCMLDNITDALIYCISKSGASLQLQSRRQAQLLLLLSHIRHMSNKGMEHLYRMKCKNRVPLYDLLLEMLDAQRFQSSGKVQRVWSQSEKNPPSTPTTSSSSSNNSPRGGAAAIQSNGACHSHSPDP
# UniProt P35813: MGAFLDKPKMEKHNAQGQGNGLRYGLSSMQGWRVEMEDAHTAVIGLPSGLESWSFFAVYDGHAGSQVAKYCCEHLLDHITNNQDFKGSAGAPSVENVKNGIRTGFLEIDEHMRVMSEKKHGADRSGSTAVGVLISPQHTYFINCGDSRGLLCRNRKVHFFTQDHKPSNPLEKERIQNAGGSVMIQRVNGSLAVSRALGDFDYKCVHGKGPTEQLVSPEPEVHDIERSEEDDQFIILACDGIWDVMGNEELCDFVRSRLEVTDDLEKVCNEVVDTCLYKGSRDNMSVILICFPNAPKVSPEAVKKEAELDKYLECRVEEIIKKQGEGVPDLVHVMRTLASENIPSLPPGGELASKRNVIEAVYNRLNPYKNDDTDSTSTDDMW
# UniProt P11511: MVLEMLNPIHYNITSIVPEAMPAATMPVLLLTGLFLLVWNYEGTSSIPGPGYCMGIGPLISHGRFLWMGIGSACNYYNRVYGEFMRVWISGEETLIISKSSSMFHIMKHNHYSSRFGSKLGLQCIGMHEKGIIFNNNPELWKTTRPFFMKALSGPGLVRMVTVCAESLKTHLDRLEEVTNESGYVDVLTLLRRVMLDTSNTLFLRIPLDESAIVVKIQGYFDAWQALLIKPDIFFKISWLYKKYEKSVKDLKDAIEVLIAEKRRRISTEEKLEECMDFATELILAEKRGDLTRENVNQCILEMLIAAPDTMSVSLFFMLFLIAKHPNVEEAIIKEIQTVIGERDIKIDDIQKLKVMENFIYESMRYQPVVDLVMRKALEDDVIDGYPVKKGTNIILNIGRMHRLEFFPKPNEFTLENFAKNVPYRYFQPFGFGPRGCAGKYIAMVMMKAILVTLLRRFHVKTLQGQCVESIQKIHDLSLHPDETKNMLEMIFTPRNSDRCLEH
# UniProt P28482, whole entry, looked up: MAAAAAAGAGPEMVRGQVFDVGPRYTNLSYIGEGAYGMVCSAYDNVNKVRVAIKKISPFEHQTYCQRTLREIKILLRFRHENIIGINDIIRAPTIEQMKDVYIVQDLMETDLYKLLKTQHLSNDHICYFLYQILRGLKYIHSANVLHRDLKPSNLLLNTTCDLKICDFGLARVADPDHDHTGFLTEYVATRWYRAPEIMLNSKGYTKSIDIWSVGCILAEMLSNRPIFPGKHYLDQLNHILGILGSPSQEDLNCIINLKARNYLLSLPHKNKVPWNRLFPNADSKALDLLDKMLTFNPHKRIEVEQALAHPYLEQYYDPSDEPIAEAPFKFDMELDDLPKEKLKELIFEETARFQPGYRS
# UniProt P19643, whole entry, looked up: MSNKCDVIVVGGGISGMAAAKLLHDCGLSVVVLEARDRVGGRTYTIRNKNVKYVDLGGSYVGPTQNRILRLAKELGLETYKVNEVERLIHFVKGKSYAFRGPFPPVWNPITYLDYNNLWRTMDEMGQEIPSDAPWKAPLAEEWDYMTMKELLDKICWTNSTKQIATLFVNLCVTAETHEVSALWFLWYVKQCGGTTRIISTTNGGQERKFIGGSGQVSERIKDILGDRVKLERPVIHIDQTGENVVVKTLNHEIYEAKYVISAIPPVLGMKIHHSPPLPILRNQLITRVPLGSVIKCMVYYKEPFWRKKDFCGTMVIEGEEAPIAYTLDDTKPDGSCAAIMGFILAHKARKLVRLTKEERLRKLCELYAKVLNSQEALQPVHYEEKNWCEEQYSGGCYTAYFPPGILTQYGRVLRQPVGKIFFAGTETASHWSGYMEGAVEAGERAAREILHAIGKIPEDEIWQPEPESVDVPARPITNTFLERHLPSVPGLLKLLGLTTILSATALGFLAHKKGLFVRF
# UniProt O15111: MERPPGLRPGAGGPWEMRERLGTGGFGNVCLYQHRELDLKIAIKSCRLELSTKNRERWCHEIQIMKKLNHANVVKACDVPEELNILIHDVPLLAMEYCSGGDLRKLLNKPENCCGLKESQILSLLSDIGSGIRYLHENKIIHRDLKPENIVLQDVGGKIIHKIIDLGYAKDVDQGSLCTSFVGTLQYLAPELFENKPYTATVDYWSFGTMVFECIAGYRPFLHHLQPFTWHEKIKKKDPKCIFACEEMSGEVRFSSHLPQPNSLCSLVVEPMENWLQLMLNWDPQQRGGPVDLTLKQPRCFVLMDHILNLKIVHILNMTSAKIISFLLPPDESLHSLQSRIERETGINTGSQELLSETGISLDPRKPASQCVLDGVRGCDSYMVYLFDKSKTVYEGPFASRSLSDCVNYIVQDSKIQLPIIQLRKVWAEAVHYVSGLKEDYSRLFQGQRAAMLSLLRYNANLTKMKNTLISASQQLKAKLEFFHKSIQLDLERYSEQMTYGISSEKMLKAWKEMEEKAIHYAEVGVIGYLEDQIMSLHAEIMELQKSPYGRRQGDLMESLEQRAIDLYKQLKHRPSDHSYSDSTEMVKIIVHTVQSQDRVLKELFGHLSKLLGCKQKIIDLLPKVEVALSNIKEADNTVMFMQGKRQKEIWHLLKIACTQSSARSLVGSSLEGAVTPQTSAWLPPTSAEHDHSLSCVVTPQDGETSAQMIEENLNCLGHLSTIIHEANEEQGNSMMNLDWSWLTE
# UniProt Q05209: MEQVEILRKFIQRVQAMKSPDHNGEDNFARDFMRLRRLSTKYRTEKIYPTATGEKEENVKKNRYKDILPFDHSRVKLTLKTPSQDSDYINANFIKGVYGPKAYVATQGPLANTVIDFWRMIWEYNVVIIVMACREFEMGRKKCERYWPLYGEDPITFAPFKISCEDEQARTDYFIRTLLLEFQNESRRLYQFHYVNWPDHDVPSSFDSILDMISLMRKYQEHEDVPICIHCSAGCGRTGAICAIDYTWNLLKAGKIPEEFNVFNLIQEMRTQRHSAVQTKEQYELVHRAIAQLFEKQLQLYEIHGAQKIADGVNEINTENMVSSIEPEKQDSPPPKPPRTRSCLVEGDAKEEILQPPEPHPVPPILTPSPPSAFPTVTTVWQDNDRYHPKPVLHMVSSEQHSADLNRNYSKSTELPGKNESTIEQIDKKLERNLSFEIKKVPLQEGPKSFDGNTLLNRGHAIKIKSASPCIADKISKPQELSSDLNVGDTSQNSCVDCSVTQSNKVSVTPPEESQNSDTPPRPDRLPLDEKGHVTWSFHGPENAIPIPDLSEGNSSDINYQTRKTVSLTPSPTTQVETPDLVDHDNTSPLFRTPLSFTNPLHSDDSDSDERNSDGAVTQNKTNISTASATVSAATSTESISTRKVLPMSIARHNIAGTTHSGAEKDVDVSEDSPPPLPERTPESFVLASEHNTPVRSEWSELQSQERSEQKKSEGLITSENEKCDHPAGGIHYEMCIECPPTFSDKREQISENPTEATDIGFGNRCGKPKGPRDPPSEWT
# UniProt Q02763: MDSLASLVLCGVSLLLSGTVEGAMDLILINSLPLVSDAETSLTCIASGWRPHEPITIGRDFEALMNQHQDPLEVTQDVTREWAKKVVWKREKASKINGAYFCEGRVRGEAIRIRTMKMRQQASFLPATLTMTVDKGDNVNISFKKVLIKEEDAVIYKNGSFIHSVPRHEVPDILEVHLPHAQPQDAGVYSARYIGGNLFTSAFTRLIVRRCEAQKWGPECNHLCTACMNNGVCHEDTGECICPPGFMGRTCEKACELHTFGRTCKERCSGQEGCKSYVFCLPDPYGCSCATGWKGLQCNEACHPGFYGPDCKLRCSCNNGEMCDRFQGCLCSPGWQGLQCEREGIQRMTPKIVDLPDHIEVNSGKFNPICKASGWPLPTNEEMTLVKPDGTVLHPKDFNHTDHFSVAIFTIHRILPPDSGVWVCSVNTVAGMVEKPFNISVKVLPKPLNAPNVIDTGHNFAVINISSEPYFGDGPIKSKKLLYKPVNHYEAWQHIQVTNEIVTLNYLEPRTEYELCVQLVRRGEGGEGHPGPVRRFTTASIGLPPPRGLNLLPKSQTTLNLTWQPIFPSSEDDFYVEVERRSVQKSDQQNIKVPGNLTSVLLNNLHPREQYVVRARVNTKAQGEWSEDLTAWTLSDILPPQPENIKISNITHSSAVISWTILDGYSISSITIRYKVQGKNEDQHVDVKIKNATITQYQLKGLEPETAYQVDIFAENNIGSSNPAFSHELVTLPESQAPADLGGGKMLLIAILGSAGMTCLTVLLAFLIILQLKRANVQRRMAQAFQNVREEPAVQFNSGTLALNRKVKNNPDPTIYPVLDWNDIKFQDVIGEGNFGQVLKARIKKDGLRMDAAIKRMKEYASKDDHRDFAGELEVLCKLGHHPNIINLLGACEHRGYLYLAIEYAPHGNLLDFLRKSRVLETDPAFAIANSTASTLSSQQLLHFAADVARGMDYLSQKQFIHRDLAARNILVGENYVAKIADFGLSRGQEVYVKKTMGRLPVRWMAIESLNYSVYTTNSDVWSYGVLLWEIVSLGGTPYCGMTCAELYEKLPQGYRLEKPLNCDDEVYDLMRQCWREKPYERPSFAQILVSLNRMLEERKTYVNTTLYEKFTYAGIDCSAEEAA
# UniProt Q05941, whole entry, looked up: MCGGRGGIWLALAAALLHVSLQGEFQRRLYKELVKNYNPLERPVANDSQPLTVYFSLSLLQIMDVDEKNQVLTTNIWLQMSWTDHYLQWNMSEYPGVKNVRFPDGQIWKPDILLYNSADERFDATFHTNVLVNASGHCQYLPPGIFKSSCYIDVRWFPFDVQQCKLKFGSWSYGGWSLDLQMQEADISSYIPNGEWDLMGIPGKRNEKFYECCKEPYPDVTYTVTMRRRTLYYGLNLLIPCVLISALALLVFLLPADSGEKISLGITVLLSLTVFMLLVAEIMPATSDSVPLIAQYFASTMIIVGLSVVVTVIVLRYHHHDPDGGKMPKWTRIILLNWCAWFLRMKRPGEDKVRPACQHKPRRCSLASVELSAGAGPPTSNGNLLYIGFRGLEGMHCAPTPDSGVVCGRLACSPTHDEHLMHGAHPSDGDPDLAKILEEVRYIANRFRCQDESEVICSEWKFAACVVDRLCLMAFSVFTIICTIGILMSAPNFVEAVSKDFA
# The shares of active, inactive and inconclusive entries below differ from those in the screen. For some of these results: A potency beside an inconclusive call is a rough fit, not a confirmed value. Active and inactive are the calls of the source. The calls were made as follows: active = hit-call score of the fitted dose curve at least 0.9, where 1 is the maximum; inconclusive = response in the unintended direction; inactive = score below 0.9.
# Legend:
# [1] = target: human CYP1A1, CYP1A1 (gene 1543) (UniProt P04798); assay: NVS_ADME_hCYP1A1: NovaScreen (NVS) CYP450-related Enzyme Activity (ADME) Assay for human CYP1A1 (AID 2283100)
# Summary of the method: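 Compounds first went through duplicate single-concentration testing at 10 uM against purified CYP1A1. Those passing a threshold such as 30% inhibition entered singleton dose-response, highest concentration 20 uM. Signal was fluorescence measured after 1 hour.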
# [2] = target: zebrafish Estrogen Receptor (ESR1), esr1 (gene 259252) (UniProt P57717); assay: ATG_zfER1_XSP1: Attagene TRANS-FACTORIAL Multi-Species (XSP1) HepG2 Assay for zebrafish Estrogen Receptor (ESR1) (AID 2283772)
# Summary of the method: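 Exogenous chimeric receptor-GAL4 activity is measured in transiently transfected human HepG2 liver cells after 24 h compound exposure. Reporter transcripts are detected by RT-PCR and fluorescent capillary electrophoresis, analysed for signal gain relative to DMSO.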
# [3] = tested on: zebrafish Estrogen Receptor (ESR2A), gene 317734; assay: ATG_zfER2a_XSP1: Attagene TRANS-FACTORIAL Multi-Species (XSP1) HepG2 Assay for zebrafish Estrogen Receptor (ESR2A) (AID 2283778)
# Summary of the method: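 Transient transfection of HepG2 (human liver) with MRTU constructs; chemical dosing for 24 h; medium contained 3 nM 6-alpha-fluorotestosterone to partly stimulate AR. RT-PCR/CE fluorescence of reporter transcripts; positive direction vs DMSO.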
# [4] = tested on: turtle Estrogen Receptor (ESR1), gene 101933533; assay: ATG_trERa_XSP1: Attagene TRANS-FACTORIAL Multi-Species (XSP1) HepG2 Assay for turtle Estrogen Receptor (ESR1) (AID 2283781)
# Summary of the method: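 Transfect HepG2 with reporter units → dose chemical 24 h (medium has 3 nM 6-alpha-fluorotestosterone) → isolate RNA, RT-PCR → FAM primer extension, HpaI digest → capillary electrophoresis; gain of signal vs DMSO.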
# [5] = tested on: turtle Estrogen Receptor (ERa), gene 101933533; assay: ATG_trERa_XSP2: Attagene TRANS-FACTORIAL Multi-Species (XSP2) HepG2 Assay for turtle Estrogen Receptor (ERa) (AID 2283812);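 also: actives raise reporter signal above DMSO so AC50 reflects agonist activity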
# Summary of the method: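 Readout is reporter mRNA quantified by RT-PCR with capillary electrophoresis after 24 h compound exposure, increase relative to DMSO. Uses transiently transfected human HepG2 liver cells carrying a chimeric turtle ERa-Gal4 receptor driving GAL4-UAS reporters.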
# [6] = target: Nuclear receptor subfamily 1 group I member 2 (Mus musculus) (UniProt O54915); assay: ATG_mPXR_XSP2: Attagene TRANS-FACTORIAL Multi-Species (XSP1) HepG2 Assay for mouse Pregnane X Receptor (PXR) (AID 2283831)
# Summary of the method: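 Human liver HepG2 cells expressing exogenous receptor-GAL4 chimeras were exposed to test chemicals for 24 h. Induction of reporter mRNA was scored as gain of fluorescence signal over DMSO controls.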
# [7] = TOX21_PR_LUC_Followup_Agonist_viability: Viability Assessment in the Tox21 HEK293 Progesterone Receptor (PR) Agonism Luciferase Follow-Up Assay (AID 2283941);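 also: loss of signal means cytotoxicity so actives lower viability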
# Summary of the method: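 Seeding: HEK293-PR-A-luc, 3,000 cells/well, 5 h at 37C. Treatment: compound in DMSO, 16 h, 37C. Read: CellTiter-Glo ATP luminescence, signal loss taken as lower viability.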
# [8] = target: human Protein Phosphatase, Mg2+/Mn2+ Dependent 1A (PPM1A), PPM1A (gene 5494) (UniProt P35813); assay: NVS_ENZ_hPPM1A: NovaScreen (NVS) Enzymatic Assay for human Protein Phosphatase, Mg2+/Mn2+ Dependent 1A (PPM1A) (AID 2283198)
# Summary of the method: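 Primary screen in duplicate at 25 uM, with actives then titrated to a maximum of 50 uM. Recombinant PPM1A dephosphorylation of fluorescent substrate measured at 1 h, with substrate and product separated by mobility shift; inhibition fitted against DMSO.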
# [9] = target: human CYP19A1, CYP19A1 (gene 1588) (UniProt P11511); assay: NVS_ADME_hCYP19A1: NovaScreen (NVS) CYP450-related Enzyme Activity (ADME) Assay for human CYP19A1 (AID 2283098);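 also: potency for inhibitors seen as loss of fluorescent enzyme signal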
# Summary of the method: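 Fluorescence intensity read-out; activity taken as signal loss relative to acetonitrile vehicle. Extracted enzyme, specific substrate, no cells, 0.5 h exposure. Duplicate single-point screen at 10 uM, then concentration–response follow-up for actives.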
# [10] = target: human Ephrin type-A Receptor 2 (EphA2), EPHA2 (gene 1969) (UniProt P29317); assay: NVS_ENZ_hEphA2: NovaScreen (NVS) Enzymatic Assay for human Ephrin type-A Receptor 2 (EphA2) (AID 2283155)
# Summary of the method: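 Enzyme activity of recombinant EphA2 read by fluorescence after mobility-shift separation, 1 h after dosing. Chemicals first tested at 25 uM (duplicate); those passing threshold run as concentration series, top 50 uM, single replicate, relative to DMSO.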
# [11] = target: human Mitogen-Activated Protein Kinase 1 (MAPK 1), MAPK1 (gene 5594) (UniProt P28482); assay: NVS_ENZ_hMAPK1: NovaScreen (NVS) Enzymatic Assay for human Mitogen-Activated Protein Kinase 1 (MAPK 1) (AID 2283175)
# Summary of the method: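 Cell-free recombinant human MAPK1 enzymatic assay, fluorescence/electrophoretic mobility shift read at 1 h; loss of signal vs DMSO. Primary screen in duplicate at 25 uM; actives (e.g. ≥30% inhibition) run as concentration-response up to 50 uM.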
# [12] = Tanguay_ZF_120hpf_YSE_legacy: (Legacy) Oregon State University Tanguay Lab 120 Hour Post-fertilization zebrafish Assay for Yolk Sac Edema (AID 2283634);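 as to AC50: actives raise the incidence of yolk sac edema above the DMSO baseline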
# Summary of the method: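 Readout: presence or absence of yolk sac edema at 120 hpf, fitted upward against DMSO controls. Exposure ran statically from 6 hpf in dechorionated embryos kept at 28C.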
# [13] = Tanguay_ZF_120hpf_SNOU_legacy: (Legacy) Oregon State University Tanguay Lab 120 Hour Post-fertilization zebrafish Assay for Snout Malformation (AID 2283637)
# Summary of the method: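 Binary brightfield scoring of snout malformation at 120 hpf. Dechorionated 5D wild-type embryos, one per well, static exposure from 6 hpf at 28C, sealed and dark; final DMSO 0.64% (vol/vol), DMSO as baseline; 5uM trimethyltin chloride positive control.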
# [14] = target: Tyrosine-protein phosphatase non-receptor type 11 (Homo sapiens) (UniProt Q06124); assay: NVS_ENZ_hPTPN11: NovaScreen (NVS) Enzymatic Assay for human Protein Tyrosine Phosphatase Non-receptor Type 11 (PTPN11) (AID 2283202)
# Summary of the method: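 Compounds first tested in duplicate at 25 uM; those reaching ~30% inhibition rerun in singleton concentration-response, top 50 uM. Phosphatase activity measured after 0.5 h by fluorescence with mobility-shift separation, relative to DMSO.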
# [15] = target: rat Monoamine Oxidase, MAO-B, Peripheral (MAOBP), Maob (gene 25750) (UniProt P19643); assay: NVS_ENZ_rMAOBP: NovaScreen (NVS) Enzymatic Assay for rat Monoamine Oxidase, MAO-B, Peripheral (MAOBP) (AID 2283242)
# [16] = target: human IkappaB Kinase alpha (IKKa), CHUK (gene 1147) (UniProt O15111); assay: NVS_ENZ_hIKKa: NovaScreen (NVS) Enzymatic Assay for human IkappaB Kinase alpha (IKKa) (AID 2283167)
# Summary of the method: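 Compounds first run in duplicate at 25 uM, those meeting threshold (e.g. 30% inhibition) retested to maximum 50 uM. Enzyme activity of recombinant IKKa measured by fluorescence with electrophoretic mobility shift separation, 1 hour post-dosing, DMSO baseline.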
# [17] = target: Tyrosine-protein phosphatase non-receptor type 12 (Homo sapiens) (UniProt Q05209); assay: NVS_ENZ_hPTPN12: NovaScreen (NVS) Enzymatic Assay for human Protein Tyrosine Phosphatase Non-receptor Type 12 (PTPN12) (AID 2283204)
# Summary of the method: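 Single-concentration duplicates (25 uM) preceded singleton concentration-response up to 50 uM for chemicals passing threshold. Cell-free recombinant PTPN12 activity was read 1.33 h after dosing via fluorescence after mobility-shift separation; loss of signal versus DMSO.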
# [18] = target: human Tyrosine Protein Kinase Receptor Tie-2 (Tie2), TEK (gene 7010) (UniProt Q02763); assay: NVS_ENZ_hTie2: NovaScreen (NVS) Enzymatic Assay for human Tyrosine Protein Kinase Receptor Tie-2 (Tie2) (AID 2283225)
# Summary of the method: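 Substrate and product were separated by mobility shift and detected by fluorescence after a 1-hour reaction with recombinant Tie2. Chemicals passing a 25 uM single-point screen were titrated to a maximum of 50 uM. Results were normalized to DMSO baseline.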
# [19] = tested on: Sodium/Iodide Symporter (NIS), SLC5A5 (gene 6528); assay: CPHEA_Stoker_NIS_Inhibition_RAIU: CPHEA's Radioactive Iodide Uptake (RAIU) Assay for Sodium/Iodide Symporter (NIS) Inhibition, Stoker and Laws Labs (AID 2283841)
# Summary of the method: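 hNIS-HEK293T-EPA cells incubated 2 h at room temperature with compound (0.001–100 uM, 0.5% DMSO) and 329 pM final 125I in HBSS/10 mM HEPES, pH 7.4. Intracellular 125I counted; normalised to DMSO maximal uptake, triplicate, three biological replicates.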
# [20] = target: rat Neonicotinoid receptor (NNR), Chrna7 (gene 25302) (UniProt Q05941); assay: NVS_LGIC_rNNR_BungSens: NovaScreen (NVS) Ligand-Gated Ion Channel Assay for rat Neonicotinoid receptor (NNR) (AID 2283315)
# Summary of the method: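 Rat cortical membrane preparation incubated 2.5 h with tritiated or iodinated radioligand and test chemical. Bound radioactivity was filtered and counted by scintillation, and displacement was analysed against DMSO.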
smiles,measurement,setting,value
CCCCC(CC)COC(=O)c1ccccc1C(=O)OCC(CC)CCCC (stereo not given),AC50,[1],inconclusive: 18.2 µM
same,AC50,[2],inconclusive: 1.97 µM
same,AC50,[3],inconclusive: 25.8 µM
same,outcome,[4],inactive
same,AC50,[5],inconclusive: 100 µM
same,AC50,[6],active: 0.342 µM
CCOP(=S)(OCC)SCSc1ccc(Cl)cc1,AC50,[7],inconclusive: 46.1 µM
COS(=O)(=O)OC,AC50,[8],inconclusive: 7.29 µM
N#Cc1c[nH]cc1-c1cccc2c1OC(F)(F)O2,AC50,[9],inconclusive: 0.11 µM
same,AC50,[10],inconclusive: 10.9 µM
Nc1ccc(-c2ccc(N)cc2)cc1,AC50,[1],active: 3.1 µM
same,AC50,[11],inconclusive: 0.0982 µM
Clc1ccc(C(Cl)(Cl)Cl)cc1,outcome,[12],inactive
same,AC50,[13],inconclusive: 115 µM
Cc1ccc(N=CN(C)C=Nc2ccc(C)cc2C)c(C)c1,AC50,[14],inconclusive: 0.00229 µM
same,AC50,[15],inconclusive: 25 µM
O=C(O)C(F)(F)C(F)(F)C(F)(F)C(F)(F)C(F)(F)C(F)(F)C(F)(F)C(F)(F)F,outcome,[16],inactive
same,outcome,[17],inactive
same,AC50,[18],active: 6.63 µM
same,AC50,[19],inconclusive: 0.000908 µM
C=CC(N)=O,AC50,[20],inconclusive: 15.2 µM
O=C(O)C(Cl)Cl,outcome,[8],inactive
same,outcome,[17],inactive
CCOP(=S)(OCC)SCn1c(=O)oc2cc(Cl)ccc21,AC50,[15],inconclusive: 0.209 µM
same,AC50,[2],inconclusive: 100 µM
same,AC50,[3],inconclusive: 100 µM
same,AC50,[4],inconclusive: 100 µM
same,AC50,[7],inconclusive: 9.14 µM
CCOP(=O)(OCC)Oc1cc(C)nc(C(C)C)n1,AC50,[16],inconclusive: 25 µM
same,outcome,[20],inactive
CCS(=O)(=O)c1cccnc1S(=O)(=O)NC(=O)Nc1nc(OC)cc(OC)n1,AC50,[14],inconclusive: 0.0103 µM
CCCCOCN(C(=O)CCl)c1c(CC)cccc1CC,outcome,[13],inactive
ClC1=C(Cl)C2(Cl)C3C(Cl)C(Cl)CC3C1(Cl)C2(Cl)Cl (stereo not given),outcome,[11],inactive
same,AC50,[18],inconclusive: 6.64 µM
CC(C)(c1cc(Cl)c(O)c(Cl)c1)c1cc(Cl)c(O)c(Cl)c1,AC50,[5],inconclusive: 184 µM
same,AC50,[6],inconclusive: 100 µM
O=C(O)C(F)(F)C(F)(F)C(F)(F)C(F)(F)C(F)(F)C(F)(F)C(F)(F)C(F)(F)C(F)(F)C(F)(F)F,AC50,[10],inconclusive: 23.9 µM
CC(COc1ccc(Oc2ccccc2)cc1)Oc1ccccn1 (stereo not given),AC50,[9],inconclusive: 10 µM
same,AC50,[12],inconclusive: 8.22 µM
same,outcome,[19],inactive

# Taken from above for reference:
smiles,measurement,setting,value
Cc1ccc(N=CN(C)C=Nc2ccc(C)cc2C)c(C)c1,AC50,[14],inconclusive: 0.00229 µM
same,AC50,[15],inconclusive: 25 µM
O=C(O)C(F)(F)C(F)(F)C(F)(F)C(F)(F)C(F)(F)C(F)(F)C(F)(F)C(F)(F)F,outcome,[16],inactive
same,outcome,[17],inactive
same,AC50,[18],active: 6.63 µM
same,AC50,[19],inconclusive: 0.000908 µM
C=CC(N)=O,AC50,[20],inconclusive: 15.2 µM
O=C(O)C(Cl)Cl,outcome,[8],inactive
same,outcome,[17],inactive
CCOP(=S)(OCC)SCn1c(=O)oc2cc(Cl)ccc21,AC50,[15],inconclusive: 0.209 µM
same,AC50,[2],inconclusive: 100 µM
same,AC50,[3],inconclusive: 100 µM
